According to PMC10832218:
These are yes or no findings as the source states them, for the method shown. In cells and extracts the contact can be indirect.

The chains behind the UniProt entries cited, without tags or fusion partners.
UniProt Q8CHI8: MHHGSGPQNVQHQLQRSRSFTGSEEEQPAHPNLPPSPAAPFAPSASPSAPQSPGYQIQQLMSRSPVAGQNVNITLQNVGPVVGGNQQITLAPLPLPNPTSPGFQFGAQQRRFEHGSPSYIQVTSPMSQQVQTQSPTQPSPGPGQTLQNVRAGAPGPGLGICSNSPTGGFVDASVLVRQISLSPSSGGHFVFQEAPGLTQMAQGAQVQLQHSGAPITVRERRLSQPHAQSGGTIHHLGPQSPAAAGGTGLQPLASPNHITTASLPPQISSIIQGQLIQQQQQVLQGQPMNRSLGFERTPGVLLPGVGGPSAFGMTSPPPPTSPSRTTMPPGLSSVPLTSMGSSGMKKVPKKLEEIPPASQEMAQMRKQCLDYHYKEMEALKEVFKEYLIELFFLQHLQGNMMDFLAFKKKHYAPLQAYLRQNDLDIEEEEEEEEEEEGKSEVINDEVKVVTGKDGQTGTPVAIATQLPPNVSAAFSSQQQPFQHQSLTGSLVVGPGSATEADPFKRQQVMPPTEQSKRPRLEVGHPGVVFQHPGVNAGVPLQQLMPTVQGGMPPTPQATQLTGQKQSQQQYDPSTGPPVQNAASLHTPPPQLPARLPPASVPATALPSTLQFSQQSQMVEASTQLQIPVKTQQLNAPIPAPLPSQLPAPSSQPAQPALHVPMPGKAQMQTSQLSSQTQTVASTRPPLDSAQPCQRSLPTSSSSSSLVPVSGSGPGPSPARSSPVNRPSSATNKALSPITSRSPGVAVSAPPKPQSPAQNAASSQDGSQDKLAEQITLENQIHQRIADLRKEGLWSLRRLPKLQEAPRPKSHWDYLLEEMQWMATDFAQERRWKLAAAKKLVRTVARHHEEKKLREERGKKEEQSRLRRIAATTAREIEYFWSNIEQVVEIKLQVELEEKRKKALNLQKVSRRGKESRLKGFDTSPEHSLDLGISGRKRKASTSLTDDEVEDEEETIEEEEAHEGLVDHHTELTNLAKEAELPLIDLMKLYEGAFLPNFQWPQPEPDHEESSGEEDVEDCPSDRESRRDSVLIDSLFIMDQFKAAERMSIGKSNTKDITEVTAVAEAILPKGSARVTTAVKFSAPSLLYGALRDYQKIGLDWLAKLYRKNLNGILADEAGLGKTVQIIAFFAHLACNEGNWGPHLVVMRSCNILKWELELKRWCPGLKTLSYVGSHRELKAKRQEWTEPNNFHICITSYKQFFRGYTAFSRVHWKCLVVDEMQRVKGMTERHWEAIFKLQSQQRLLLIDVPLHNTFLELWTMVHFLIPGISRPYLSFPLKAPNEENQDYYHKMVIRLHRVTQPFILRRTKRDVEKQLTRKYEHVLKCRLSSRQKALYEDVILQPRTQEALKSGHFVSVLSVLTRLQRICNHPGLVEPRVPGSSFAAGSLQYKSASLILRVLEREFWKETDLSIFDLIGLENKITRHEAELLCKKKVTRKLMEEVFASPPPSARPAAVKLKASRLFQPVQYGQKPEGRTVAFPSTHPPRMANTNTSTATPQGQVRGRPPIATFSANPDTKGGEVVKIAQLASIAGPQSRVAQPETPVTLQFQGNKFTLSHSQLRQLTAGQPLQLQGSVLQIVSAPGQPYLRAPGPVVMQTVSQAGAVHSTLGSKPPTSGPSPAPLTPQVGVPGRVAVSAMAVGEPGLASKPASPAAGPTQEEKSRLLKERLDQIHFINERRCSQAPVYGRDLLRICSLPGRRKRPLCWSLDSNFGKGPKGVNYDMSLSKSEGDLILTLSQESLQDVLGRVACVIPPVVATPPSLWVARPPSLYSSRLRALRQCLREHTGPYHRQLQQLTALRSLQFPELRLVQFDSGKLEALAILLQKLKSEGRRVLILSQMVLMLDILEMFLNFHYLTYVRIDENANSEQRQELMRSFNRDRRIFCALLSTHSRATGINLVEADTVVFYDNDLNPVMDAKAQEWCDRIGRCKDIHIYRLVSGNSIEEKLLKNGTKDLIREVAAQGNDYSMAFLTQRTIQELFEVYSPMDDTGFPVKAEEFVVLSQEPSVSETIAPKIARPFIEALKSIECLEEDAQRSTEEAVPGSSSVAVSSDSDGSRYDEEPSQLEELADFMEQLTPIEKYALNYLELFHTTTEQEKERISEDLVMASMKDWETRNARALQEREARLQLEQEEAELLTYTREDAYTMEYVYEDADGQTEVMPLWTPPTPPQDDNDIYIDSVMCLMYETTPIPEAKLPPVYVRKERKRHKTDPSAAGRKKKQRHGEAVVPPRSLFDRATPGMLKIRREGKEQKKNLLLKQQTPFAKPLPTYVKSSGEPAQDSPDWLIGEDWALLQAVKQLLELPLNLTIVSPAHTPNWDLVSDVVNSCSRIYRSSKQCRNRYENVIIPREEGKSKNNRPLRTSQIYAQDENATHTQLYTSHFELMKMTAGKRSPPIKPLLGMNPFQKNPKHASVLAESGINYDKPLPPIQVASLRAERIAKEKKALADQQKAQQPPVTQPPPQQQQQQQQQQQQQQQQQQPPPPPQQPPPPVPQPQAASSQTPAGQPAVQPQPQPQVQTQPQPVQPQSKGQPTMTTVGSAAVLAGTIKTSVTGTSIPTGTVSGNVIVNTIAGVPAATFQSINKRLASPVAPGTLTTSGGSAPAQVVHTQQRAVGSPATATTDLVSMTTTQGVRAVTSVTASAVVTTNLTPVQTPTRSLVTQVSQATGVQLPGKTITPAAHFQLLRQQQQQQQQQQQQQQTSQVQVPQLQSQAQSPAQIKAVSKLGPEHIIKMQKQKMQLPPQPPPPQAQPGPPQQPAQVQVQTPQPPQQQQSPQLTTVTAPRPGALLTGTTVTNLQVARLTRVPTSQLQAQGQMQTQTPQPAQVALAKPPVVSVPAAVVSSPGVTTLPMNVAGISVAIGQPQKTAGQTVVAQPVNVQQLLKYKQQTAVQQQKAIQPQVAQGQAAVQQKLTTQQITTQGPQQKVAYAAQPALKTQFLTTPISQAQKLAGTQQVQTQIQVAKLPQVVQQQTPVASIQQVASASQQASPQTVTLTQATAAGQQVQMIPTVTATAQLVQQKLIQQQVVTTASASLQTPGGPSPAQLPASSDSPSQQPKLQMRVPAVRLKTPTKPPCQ

Target: p400 (mouse (endogenous in NIH3T3)) (UniProt Q8CHI8)
Assay: co-IP; Nuclear Complex Co-IP Kit (Active Motif); 200 ug nuclear extract of NIH3T3 + BORIS (clone#2) cells with 3 ug antibody overnight at 4 C, Protein G beads, low salt and detergent IP buffers; extracts with or without benzonase (125 U/mL, on ice, 90 min); Western blot

B1: BORIS (Brother of Regulator of Imprinted Sites) (protein, UniProt Q8NI51 1-663)
chain: MAATEISVLSEQFTKIKELELMPEKGLKEEEKDGVCREKDHRSPSELEAERTSGAFQDSVLEEEVELVLAPSEESEKYILTLQTVHFTSEAVELQDMSLLSIQQQEGVQVVVQQPGPGLLWLEEGPRQSLQQCVAISIQQELYSPQEMEVLQFHALEENVMVASEDSKLAVSLAETTGLIKLEEEQEKNQLLAERTKEQLFFVETMSGDERSDEIVLTVSNSNVEEQEDQPTAGQADAEKAKSTKNQRKTKGAKGTFHCDVCMFTSSRMSSFNRHMKTHTSEKPHLCHLCLKTFRTVTLLRNHVNTHTGTRPYKCNDCNMAFVTSGELVRHRRYKHTHEKPFKCSMCKYASVEASKLKRHVRSHTGERPFQCCQCSYASRDTYKLKRHMRTHSGEKPYECHICHTRFTQSGTMKIHILQKHGENVPKYQCPHCATIIARKSDLRVHMRNLHAYSAAELKCRYCSAVFHERYALIQHQKTHKNEKRFKCKHCSYACKQERHMTAHIRTHTGEKPFTCLSCNKCFRQKQLLNAHFRKYHDANFIPTVYKCSKCGKGFSRWINLHRHSEKCGSGEAKSAASGKGRRTRKRKQTILKEATKGQKEAAKGWKEAANGDEAAAEEASTTKGEQFPGEMFPVACRETTARVKEEVDEGVTCEMLLNTMDK
- binding: no binding
